{
  "source": "PubChem BioAssay AID540256",
  "about": "(National Center for Advancing Translational Sciences (NCATS), 2011)",
  "note": "Among all 300,000 compounds or so, about 3,700 (1.2%) were called active. Inconclusive results, whose numbers are uncertain, are shown with a selection of clear calls. Calls follow the shape of the full dose curve; tested in HEK293 cells. A potency beside an inconclusive call is a rough fit, not a confirmed value. Potency is read from the fitted curve at half-maximal effect.",
  "data": [
    {"test": "qHTS for Inhibitors of binding or entry into cells for Lassa Virus; also: nearly all actives have a fitted effect of over 50% in size", "conditions": "Lassa virus pseudotype entry inhibition, cell reporter; series mostly up to 37.9 µM", "values": [
      {"smiles": "COc1ccc(NC(=O)C(C(C)C)N2Cc3ccccc3C2=O)cc1", "note": "(stereo not given)", "Potency": "inactive"},
      {"smiles": "CC(=O)Nc1nc2c(s1)C(=O)NCCC2", "Potency": "inconclusive: 5.62 µM [inhibitor, partial curve, poor fit]"},
      {"smiles": "Fc1ccc(Cn2nnnc2CN2CCN(C3CCCCC3)CC2)cc1", "Potency": "inactive"},
      {"smiles": "Cc1cc(C)c2c(NC(=S)NC(=O)c3ccccc3)nn(C)c2n1", "Potency": "inactive"},
      {"smiles": "Cc1cc(OCC(=O)Nc2ccncc2)ccc1Cl", "Potency": "inconclusive: 17.8 µM [inhibitor, single point]"},
      {"smiles": "CC(C)CN1CCN(Cc2cccn2-c2ccc(Cl)cn2)CC1CCO", "note": "(stereo not given)", "Potency": "inconclusive: 1 µM [inhibitor, single point]"},
      {"smiles": "CCOC(=O)c1[nH]c(C)c(C(=O)Nc2ccc(C)c(F)c2)c1C", "Potency": "inconclusive: 2.59 µM [inhibitor, full curve, poor fit]"},
      {"smiles": "O=C1CN(C(=O)COC(=O)C2CCN(S(=O)(=O)c3ccccc3C(F)(F)F)CC2)c2ccccc2N1", "Potency": "inactive"},
      {"smiles": "COc1ccc(C(=O)/C=C\\c2ccc(NC(=O)c3cccs3)cc2)cc1", "Potency": "inconclusive: 25.9 µM [inhibitor, partial curve, poor fit]"},
      {"smiles": "COc1ccc(S(=O)(=O)N2CCC(C(=O)N[C@H](C(=O)N3CCCC3)C(C)C)CC2)cc1", "Potency": "inconclusive: 6.31 µM [activator, single point]"},
      {"smiles": "CSc1nc(Cl)c(Cc2ccc(OC(C)C)cc2)c(N2CCOCC2)n1", "Potency": "inconclusive: 10 µM [inhibitor, partial curve, poor fit]"},
      {"smiles": "CCS(=O)(=O)N1CCc2cc(C(=O)NCc3ccccc3Cl)ccc21", "Potency": "inactive"},
      {"smiles": "N#Cc1c(NC(=O)C2C3C=CC(C3)C2C(=O)O)sc2c1CCCCC2", "note": "(stereo not given)", "Potency": "inconclusive: 7.08 µM [inhibitor, partial curve, poor fit]"},
      {"smiles": "Cc1[nH]c2ccccc2c1/C=N/NC(=O)C1CC1(c1ccccc1)c1ccccc1", "note": "(stereo not given)", "Potency": "inconclusive: 13 µM [inhibitor, partial curve, poor fit]"},
      {"smiles": "Cc1ccc(SCCCCN2CCNCC2)cc1", "Potency": "inactive"},
      {"smiles": "CN(C)C(=O)CSc1ccc(S(=O)(=O)N2CCCC2)cn1", "Potency": "inactive"},
      {"smiles": "Cc1ccc(NC(=O)CCN2C(=O)c3ccccc3Sc3ncccc32)c(Cl)c1", "Potency": "inactive"},
      {"smiles": "CC1=CC(C)(C)N(C(=O)CNC2CCCCC2)c2cc(C)ccc21", "Potency": "inconclusive: 35.5 µM [inhibitor, single point]"},
      {"smiles": "CC(C)OC(=O)c1c(NC(=O)c2cccs2)sc2c1CCCC2", "Potency": "inactive"},
      {"smiles": "CNC(=O)c1c(NC(=O)Cc2coc3ccc(OC)cc23)sc2c1CCCC2", "Potency": "inconclusive: 35.5 µM [inhibitor, single point]"},
      {"smiles": "CCN(CC)S(=O)(=O)c1cc(NC(=O)COC(=O)CCc2nc3ccccc3s2)ccc1C", "Potency": "inactive"},
      {"smiles": "CCOC(=O)C(=Cc1cc(=O)c(OC)co1)C(=O)OCC", "Potency": "inconclusive: 23.1 µM [inhibitor, single point]"},
      {"smiles": "O=c1[nH]c(=S)[nH]c2c1C(c1ccc(Br)cc1)c1c([nH]c(=S)[nH]c1=O)O2", "Potency": "inactive"},
      {"smiles": "Cc1ccc(C)c(S(=O)(=O)N2CCCOC2CNC(=O)C(=O)NCCC2=CCCCC2)c1", "note": "(stereo not given)", "Potency": "inconclusive: 0.164 µM [inhibitor, full curve, poor fit]"},
      {"smiles": "CC(C)Oc1cccc(C(=O)NC(=S)Nc2cccc(NC(=O)c3ccccc3Cl)c2)c1", "Potency": "inconclusive: 12.6 µM [inhibitor, single point]"},
      {"smiles": "CN(C)S(=O)(=O)c1ccc(Cl)c(NC(=O)CN2CCC(Cc3ccccc3)CC2)c1", "Potency": "inconclusive: 0.562 µM [inhibitor, full curve, poor fit]"},
      {"smiles": "Oc1ccccc1C1SC(c2ccccc2O)SC(c2ccccc2O)S1", "note": "(stereo not given)", "Potency": "inconclusive: 25.1 µM [inhibitor, single point]"},
      {"smiles": "N#C/C(=N\\Nc1ccc(F)cc1)C(=N)N1CCCCCC1", "Potency": "inconclusive: 5.01 µM [inhibitor, full curve, poor fit]"},
      {"smiles": "COc1cccc(C(=O)CC(C#N)c2ccc(F)cc2)c1", "note": "(stereo not given)", "Potency": "inconclusive: 35.5 µM [inhibitor, single point]"},
      {"smiles": "O=C(CSc1nnc(-c2ccccc2O)o1)Oc1ccc(OCc2ccccc2)cc1", "Potency": "inconclusive: 9.2 µM [inhibitor, partial curve]"},
      {"smiles": "O=C(c1ccccc1Nc1ccc(SC(F)F)cc1)N1CCCCCC1", "Potency": "inconclusive: 6.51 µM [activator, single point]"},
      {"smiles": "CC(C)c1ccc(Nc2c(-c3ccc(N(C)C)cc3)nc3cnccn23)cc1", "Potency": "inconclusive: 11.2 µM [activator, partial curve, poor fit]"},
      {"smiles": "Cc1ccc(C(C)C)c(OCC(=O)N2CCN(Cc3nc4cc([N+](=O)[O-])ccc4n3C)CC2)c1", "Potency": "inactive"},
      {"smiles": "COc1ccc(-c2noc(CSc3nc4ccccc4[nH]3)n2)cc1", "Potency": "inactive"},
      {"smiles": "CCCCCn1c(=O)[nH]c2cc(C(=O)N3CCN(Cc4ccc5c(c4)OCO5)CC3)ccc2c1=O", "Potency": "inconclusive: 4.11 µM [inhibitor, full curve]"},
      {"smiles": "CCN(c1cccc(C)c1)c1nc2ccsc2c(=O)s1", "Potency": "inconclusive: 20 µM [inhibitor, partial curve, poor fit]"},
      {"smiles": "CC(C)CC1=C/C(=C/c2ccc(-c3ccccc3)o2)C(=O)O1", "Potency": "inactive"},
      {"smiles": "CCOC(=O)c1ccc2nc(NC(=O)c3cccs3)sc2c1", "Potency": "inconclusive: 35.5 µM [inhibitor, single point]"},
      {"smiles": "c1ccc2c(c1)C(=NC1CCCCC1)NC2=NC1CCCCC1", "Potency": "active: 13 µM"},
      {"smiles": "COc1ccc(S(=O)(=O)NCC(=O)NCc2cc(=O)n(C)c(=O)n2C)cc1", "Potency": "inconclusive: 3.55 µM [activator, partial curve, poor fit]"},
      {"smiles": "CCCc1ccc2oc(C(=O)N3CCN(C4CCS(=O)(=O)C4)CC3)c(C)c2c1", "note": "(stereo not given)", "Potency": "inactive"},
      {"smiles": "O=C(/C=C/c1cccs1)c1cc(Br)ccc1OC(=O)N1CCOCC1", "Potency": "inconclusive: 16.4 µM [inhibitor, single point]"},
      {"smiles": "COc1ccc(CNC(=O)C2CCN(S(=O)(=O)c3ccc4c(c3)N(C(C)=O)CCO4)CC2)cc1", "Potency": "inactive"},
      {"smiles": "O=C(CN1CCN(c2cccc(C(F)(F)F)c2)CC1)Nc1cccc(C(F)(F)F)c1", "Potency": "inactive"},
      {"smiles": "COc1cccc(-c2c(C(=O)N/N=C/c3ccoc3)nnn2-c2nonc2N)c1", "Potency": "inconclusive: 0.562 µM [inhibitor, full curve, poor fit]"},
      {"smiles": "CCOc1ccc(C(=O)Nc2ccc3c(c2)OCCO3)cc1Br", "Potency": "inactive"},
      {"smiles": "COC(=O)Cn1c(=NC(=O)c2cc(-c3cccs3)nc3ccccc23)sc2cc(S(N)(=O)=O)ccc21", "Potency": "inconclusive: 29.1 µM [inhibitor, single point]"},
      {"smiles": "CC1=NC(=O)C(N=Nc2cccc(C(=O)O)c2)N1c1ccccc1", "note": "(stereo not given)", "Potency": "active: 2.31 µM"},
      {"smiles": "O=C(COC(=O)c1ccccc1C(=O)c1ccccc1)NCCc1ccc(Cl)cc1Cl", "Potency": "inconclusive: 20 µM [inhibitor, single point]"},
      {"smiles": "CCN(CC)S(=O)(=O)c1cccc(C(=O)NCc2ccccc2)c1", "Potency": "inactive"},
      {"smiles": "O=C(Nc1ccccc1)c1ccc(-c2ccccc2Cl)o1", "Potency": "inactive"},
      {"smiles": "c1ccc(CN2CCN(C(c3ccccc3)c3nnnn3Cc3ccccc3)CC2)cc1", "note": "(stereo not given)", "Potency": "inconclusive: 31.6 µM [inhibitor, single point]"},
      {"smiles": "O=C(CSc1nc2ccc(Nc3nc(N4CCOCC4)nc(N4CCOCC4)n3)cc2s1)N1CCOCC1", "Potency": "inconclusive: 35.5 µM [inhibitor, single point]"},
      {"smiles": "O=C(Nc1ccc(Cl)cc1)c1cc(S(=O)(=O)NC2CCCCCC2)ccc1F", "Potency": "inconclusive: 17.8 µM [inhibitor, partial curve, poor fit]"},
      {"smiles": "COc1ccc(NS(=O)(=O)c2ccc(NC(=S)NC(=O)c3ccc(F)cc3)cc2)nn1", "Potency": "inconclusive: 0.794 µM [inhibitor, single point]"},
      {"smiles": "CCc1ccc(/C=N/NC(=O)c2nnn(-c3nonc3N)c2C(C)C)cc1", "Potency": "inconclusive: 3.16 µM [inhibitor, partial curve, poor fit]"},
      {"smiles": "O=C(Cc1ccccc1)NNS(=O)(=O)c1ccccc1[N+](=O)[O-]", "Potency": "inconclusive: 3.16 µM [inhibitor, single point]"},
      {"smiles": "CSc1ccccc1C(=O)NCc1cccnc1", "Potency": "inconclusive: 35.5 µM [activator, partial curve, poor fit]"},
      {"smiles": "CN(CC(=O)Nc1cccc(F)c1)C(=O)c1ccc(COc2ccccc2)cc1", "Potency": "inactive"},
      {"smiles": "Cc1cc(C(=O)CSc2ccc(F)cc2)cc(C)c1OC(=S)N(C)C", "Potency": "inconclusive: 35.5 µM [inhibitor, single point]"},
      {"smiles": "Cc1ccc(SCc2nc(-c3ccc(C(=O)NCC(C)c4ccccc4)cc3)oc2C)cc1", "note": "(stereo not given)", "Potency": "inconclusive: 3.16 µM [inhibitor, full curve]"},
      {"smiles": "CC(/C=C/c1ccco1)=N/NC(=O)OC(C)(C)C", "Potency": "inactive"},
      {"smiles": "O=C(N/N=C/c1ccccc1[N+](=O)[O-])c1cnccn1", "Potency": "inconclusive: 6.31 µM [activator, full curve, poor fit]"},
      {"smiles": "C/C(=N\\NC(=O)c1cc(-c2ccc(Br)s2)[nH]n1)c1ccncc1", "Potency": "inactive"},
      {"smiles": "COc1ccccc1-c1noc(-c2ccccc2C(=O)NCc2ccco2)n1", "Potency": "inactive"},
      {"smiles": "O=c1cc(-c2ccccc2[N+](=O)[O-])oc2ccccc12", "Potency": "inconclusive: 3.55 µM [inhibitor, partial curve, poor fit]"},
      {"smiles": "COc1ccc(OC)c(/C=C(\\C#N)c2nc(-c3ccc(F)cc3)cs2)c1", "Potency": "inactive"},
      {"smiles": "Cn1c(C(=O)OCC(=O)NCc2cccs2)cc2sccc21", "Potency": "inconclusive: 20.6 µM [inhibitor, single point]"},
      {"smiles": "COc1ccc(NCCC(O)c2ccc(Cl)cc2)cc1", "note": "(stereo not given)", "Potency": "inconclusive: 35.5 µM [inhibitor, single point]"},
      {"smiles": "COc1cccc(C2C=C(c3ccc(Br)s3)Nc3ncnn32)c1OC", "note": "(stereo not given)", "Potency": "inactive"}
    ]}
  ]
}
